Data source: PubChem BioAssay AID652272 (Drosophila RNAi Screening Center, 2013)
Assay: 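Finding fly genes that regulate Hedgehog signal transduction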 (primary screen). Cells: Drosophila clone 8 (Cl8) cells. Reagents: long dsRNA against Drosophila genes. Detection: 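Firefly light from a Hedgehog-responsive ptc promoter reporter and Renilla reference light, both read on a plate reader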. Scale: firefly Hh reporter signal: higher = more ptc reporter light; Renilla reference signal: higher = more Renilla control light. Call rule: 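Hit when the z-score averaged over two replicates is under -2 or over +3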. Calls: active = hit: reporter lowered or raised; inactive = not a hit.
In all, the deposit lists about 21,000 reagents; shown is a random part of those with a known target gene and a result. Of all reagents, 503 (2.4%) were called active. 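Raw plate light values, not normalised; calls rest on replicate z-scores that were not deposited; hits include reporter decreases as well as increases.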 Reagent sequences are not shown. Not stated in the record: the amount of reagent, the time to read-out.

Gene | dsRNA | firefly Hh reporter signal, replicate 1 | firefly Hh reporter signal, replicate 2 | firefly Hh reporter signal, replicate 3 | Renilla reference signal, replicate 1 | Renilla reference signal, replicate 2 | activity call
Sxl | DRSC18721 | 1.06e5 | 74668 | – | 1865 | 1708 | inactive
Sxl | DRSC18722 | 1.32e5 | 3.74e5 | – | 4307 | 14375 | inactive
CG33124 | DRSC00298 | 69601 | 94736 | – | 1512 | 1796 | inactive
CG42449 | DRSC18084 | 65917 | 5.01e5 | 2.29e5 | 2323 | 2891 | inactive
CG43066 | DRSC06927 | 79456 | 6.31e5 | 74310 | 2163 | 32476 | inactive
CG4452 | DRSC10422 | 1.47e5 | 81529 | – | 5232 | 3532 | inactive
CG33958 | DRSC06472 | 62280 | 53128 | – | 1706 | 3715 | inactive
CG33958 | DRSC06944 | 1.04e5 | 59915 | – | 2454 | 4000 | inactive
CG15155 | DRSC02456 | 1.12e5 | 67014 | – | 2907 | 6520 | inactive

Part of the list above, reformatted.
| Gene | dsRNA | firefly Hh reporter signal, replicate 1 | firefly Hh reporter signal, replicate 2 | firefly Hh reporter signal, replicate 3 | Renilla reference signal, replicate 1 | Renilla reference signal, replicate 2 | activity call |
| --- | --- | --- | --- | --- | --- | --- | --- |
| CG33124 | DRSC00298 | 69601 | 94736 | – | 1512 | 1796 | inactive |
| CG42449 | DRSC18084 | 65917 | 5.01e5 | 2.29e5 | 2323 | 2891 | inactive |

The results go on.
Gene | dsRNA | firefly Hh reporter signal, replicate 1 | firefly Hh reporter signal, replicate 2 | firefly Hh reporter signal, replicate 3 | Renilla reference signal, replicate 1 | Renilla reference signal, replicate 2 | activity call
CG3402 | DRSC08567 | 1.38e5 | 83913 | – | 5995 | 2825 | inactive
CG14313 | DRSC14792 | 5.75e5 | 91205 | – | 29532 | 2183 | inactive
CG13862 | DRSC14712 | 8.75e5 | 2.03e5 | – | 43440 | 5062 | inactive
mthl11 | DRSC12779 | 2.21e5 | – | – | 3697 | – | inactive
CstF50 | DRSC15434 | 1.30e5 | 54859 | – | 3767 | 2141 | inactive
idc | DRSC15680 | 79181 | 67808 | – | 3499 | 2924 | inactive
CG8192 | DRSC07101 | 53680 | 52736 | – | 2347 | 1866 | inactive
TwdlM | DRSC15810 | 1.37e5 | 1.60e5 | – | 3443 | 3441 | inactive
DIP-theta | DRSC00885 | 5.94e5 | 6.73e5 | 2.04e5 | 31749 | 3860 | inactive
DIP-theta | DRSC02340 | 85334 | 48555 | – | 2064 | 5165 | inactive
DIP-theta | DRSC02341 | 66700 | 47204 | – | 1894 | 5736 | inactive
Osi8 | DRSC12277 | 88251 | 1.12e5 | – | 3184 | 3659 | inactive
l(3)72Dr | DRSC10478 | 1.30e5 | – | – | 4960 | 3589 | inactive
Taldo | DRSC04320 | 70272 | 61863 | – | 3376 | 2489 | inactive
